# The other results are listed elsewhere or left out.
# B1: HFR-3 (Triticum aestivum) (protein)
# chain: MKGLLLCALALAFAAVTTHAQLQSCPTRCGKQADGMECPNNLCCSKDGYCGLGVDYCSAGAGCQSGACYDNKICGAQANGTLCRNNHCCSSGGRCGYGREYCSNGCQGGPCWADLKCGHLDNGKLCPNNLCCSQYGYCGLGPEFCGTGCQNGACSTDKPCGNKANGAPCTNNYCCSQYGSCGLGKDYCGTGCQNGACN
# Key:
# Assay in all cases: glycan array binding signal (z-score within array); higher = stronger binding
# Details in all cases: glycan notation: IUPAC condensed, linker removed
# Gal(b1-3)Gal = target: Gal(b1-3)Gal
# Outline: (§1)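 Columns mapping to the same glycan were averaged after glycan names were converted to IUPAC-condensed notation. The data come from 3228 arrays in the Consortium for Functional Glycomics database, limited to those with an available protein sequence. Binding is reported as a within-array Z-score averaged across arrays of one protein sequence and across linkers.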
# Gal(b1-3)Gal(b1-4)GlcNAc = target: Gal(b1-3)Gal(b1-4)GlcNAc
# Outline: as §1
# Gal(b1-3)GalNAc = target: Gal(b1-3)GalNAc
# Outline: as §1
# [1] = target: Gal(b1-3)GalNAc(a1-3)[Fuc(a1-2)]Gal(b1-4)Glc
# Outline: as §1
# [2] = target: Gal(b1-3)GalNAc(a1-3)[Fuc(a1-2)]Gal(b1-4)GlcNAc
# Outline: as §1
# Gal(b1-3)GalNAc(b1-3)Gal = target: Gal(b1-3)GalNAc(b1-3)Gal
# Outline: as §1
# [3] = target: Gal(b1-3)GalNAc(b1-3)Gal(a1-4)Gal(b1-4)Glc
# Outline: as §1
# [4] = target: Gal(b1-3)GalNAc(b1-4)Gal(b1-4)Glc
# Outline: as §1
# [5] = target: Gal(b1-3)GalNAc(b1-4)[Neu5Ac(a2-3)]Gal(b1-4)Glc
# Outline: as §1
# Gal(b1-3)GlcNAc = target: Gal(b1-3)GlcNAc
# Outline: as §1
# [6] = target: Gal(b1-3)GlcNAc(a1-3)Gal(b1-4)GlcNAc
# Outline: as §1
# [7] = target: Gal(b1-3)GlcNAc(a1-6)Gal(b1-4)GlcNAc
# Outline: as §1
# Gal(b1-3)GlcNAc(b1-2)Man = target: Gal(b1-3)GlcNAc(b1-2)Man
# Outline: as §1
# [8] = target: Gal(b1-3)GlcNAc(b1-2)Man(a1-3)[Gal(b1-3)GlcNAc(b1-2)Man(a1-6)]Man(b1-4)GlcNAc(b1-4)GlcNAc
# Outline: as §1
# [9] = target: Gal(b1-3)GlcNAc(b1-2)Man(a1-3)[Gal(b1-3)GlcNAc(b1-2)Man(a1-6)]Man(b1-4)GlcNAc(b1-4)[Fuc(a1-6)]GlcNAc
# Outline: as §1
# [10] = target: Gal(b1-3)GlcNAc(b1-2)Man(a1-3)[GlcNAc(b1-4)][Gal(b1-3)GlcNAc(b1-2)Man(a1-6)]Man(b1-4)GlcNAc(b1-4)GlcNAc
# Outline: as §1
# [11] = target: Gal(b1-3)GlcNAc(b1-2)[Gal(b1-3)GlcNAc(b1-6)]Man(a1-6)[Gal(b1-3)GlcNAc(b1-2)Man(a1-3)]Man(b1-4)GlcNAc(b1-4)GlcNAc
# Outline: as §1
# [12] = target: Gal(b1-3)GlcNAc(b1-3)Gal(b1-3)GlcNAc
# Outline: as §1
# [13] = target: Gal(b1-3)GlcNAc(b1-3)Gal(b1-4)Glc
# Outline: as §1
# [14] = target: Gal(b1-3)GlcNAc(b1-3)Gal(b1-4)GlcNAc
# Outline: as §1
# [15] = target: Gal(b1-3)GlcNAc(b1-3)Gal(b1-4)GlcNAc(b1-2)Man(a1-3)[Gal(b1-3)GlcNAc(b1-3)Gal(b1-4)GlcNAc(b1-2)Man(a1-6)]Man(b1-4)GlcNAc(b1-4)GlcNAc
# Outline: as §1
# [16] = target: Gal(b1-3)GlcNAc(b1-3)Gal(b1-4)GlcNAc(b1-2)[Gal(b1-3)GlcNAc(b1-3)Gal(b1-4)GlcNAc(b1-6)]Man(a1-6)[Gal(b1-3)GlcNAc(b1-3)Gal(b1-4)GlcNAc(b1-2)Man(a1-3)]Man(b1-4)GlcNAc(b1-4)[Fuc(a1-6)]GlcNAc
# Outline: as §1
# [17] = target: Gal(b1-3)GlcNAc(b1-3)Gal(b1-4)GlcNAc(b1-3)Gal(b1-4)GlcNAc(b1-2)[Gal(b1-3)GlcNAc(b1-3)Gal(b1-4)GlcNAc(b1-3)Gal(b1-4)GlcNAc(b1-6)]Man(a1-6)[Gal(b1-3)GlcNAc(b1-3)Gal(b1-4)GlcNAc(b1-3)Gal(b1-4)GlcNAc(b1-2)Man(a1-3)]Man(b1-4)GlcNAc(b1-4)[Fuc(a1-6)]GlcNAc
# Outline: as §1
# [18] = target: Gal(b1-3)GlcNAc(b1-3)Gal(b1-4)GlcNAc(b1-6)[Gal(b1-3)GlcNAc(b1-3)]Gal(b1-4)Glc
# Outline: as §1
# [19] = target: Gal(b1-3)GlcNAc(b1-3)Gal(b1-4)[Fuc(a1-3)]GlcNAc
# Outline: as §1
# [20] = target: Gal(b1-3)GlcNAc(b1-3)Gal(b1-4)[Fuc(a1-3)]GlcNAc(b1-6)[Gal(b1-3)GlcNAc(b1-3)]Gal(b1-4)Glc
# Outline: as §1
# [21] = target: Gal(b1-3)GlcNAc(b1-3)GalNAc
# Outline: as §1
# [22] = target: Gal(b1-3)GlcNAc(b1-6)Gal(b1-4)GlcNAc
# Outline: as §1
# [23] = target: Gal(b1-3)GlcNAc(b1-6)GalNAc
# Outline: as §1
# [24] = target: Gal(b1-3)GlcNAc(b1-6)[Gal(b1-3)]GalNAc
# Outline: as §1
# Gal(b1-3)GlcNAc6S = target: Gal(b1-3)GlcNAc6S
# Outline: as §1
# [25] = target: Gal(b1-3)[Fuc(a1-4)]GlcNAc
# Outline: as §1
# [26] = target: Gal(b1-3)[Fuc(a1-4)]GlcNAc(b1-2)Man
# Outline: as §1
# [27] = target: Gal(b1-3)[Fuc(a1-4)]GlcNAc(b1-2)Man(a1-3)[Gal(b1-3)[Fuc(a1-4)]GlcNAc(b1-2)Man(a1-6)]Man(b1-4)GlcNAc(b1-4)[Fuc(a1-6)]GlcNAc
# Outline: as §1
# [28] = target: Gal(b1-3)[Fuc(a1-4)]GlcNAc(b1-3)Gal(b1-3)[Fuc(a1-4)]GlcNAc
# Outline: as §1
# [29] = target: Gal(b1-3)[Fuc(a1-4)]GlcNAc(b1-3)Gal(b1-4)[Fuc(a1-3)]GlcNAc
# Outline: as §1
# [30] = target: Gal(b1-3)[Fuc(a1-4)]GlcNAc(b1-6)GalNAc
# Outline: as §1
# [31] = target: Gal(b1-3)[GlcNAc(b1-6)]GalNAc
# Outline: as §1
# [32] = target: Gal(b1-3)[Neu5Ac(a2-6)]GalNAc
# Outline: as §1
# [33] = target: Gal(b1-3)[Neu5Ac(a2-6)]GlcNAc(b1-4)Gal(b1-4)Glc
# Outline: as §1
# [34] = target: Gal(b1-3)[Neu5Ac(b2-6)]GalNAc
# Outline: as §1
# Gal(b1-4)Gal = target: Gal(b1-4)Gal
# Outline: as §1
# [35] = target: Gal(b1-4)GalNAc(a1-3)[Fuc(a1-2)]Gal(b1-4)GlcNAc
# Outline: as §1
# [36] = target: Gal(b1-4)GalNAc(b1-3)[Fuc(a1-2)]Gal(b1-4)GlcNAc
# Outline: as §1
# Gal(b1-4)Glc = target: Gal(b1-4)Glc
# Outline: as §1
binder,measurement,setting,value
B1,glycan array binding signal (z-score),Gal(b1-3)Gal,-0.289
same,glycan array binding signal (z-score),Gal(b1-3)Gal(b1-4)GlcNAc,-0.718
same,glycan array binding signal (z-score),Gal(b1-3)GalNAc,0.091
same,glycan array binding signal (z-score),[1],1.68
same,glycan array binding signal (z-score),[2],0.121
same,glycan array binding signal (z-score),Gal(b1-3)GalNAc(b1-3)Gal,-0.312
same,glycan array binding signal (z-score),[3],2.05
same,glycan array binding signal (z-score),[4],2.24
same,glycan array binding signal (z-score),[5],-0.997
same,glycan array binding signal (z-score),Gal(b1-3)GlcNAc,1.05
same,glycan array binding signal (z-score),[6],-0.655
same,glycan array binding signal (z-score),[7],-1.2
same,glycan array binding signal (z-score),Gal(b1-3)GlcNAc(b1-2)Man,-1.05
same,glycan array binding signal (z-score),[8],-0.694
same,glycan array binding signal (z-score),[9],0.089
same,glycan array binding signal (z-score),[10],-0.132
same,glycan array binding signal (z-score),[11],-1
same,glycan array binding signal (z-score),[12],1.06
same,glycan array binding signal (z-score),[13],-0.246
same,glycan array binding signal (z-score),[14],-0.413
same,glycan array binding signal (z-score),[15],0.56
same,glycan array binding signal (z-score),[16],0.301
same,glycan array binding signal (z-score),[17],1.11
same,glycan array binding signal (z-score),[18],-0.123
same,glycan array binding signal (z-score),[19],0.11
same,glycan array binding signal (z-score),[20],-1.33
same,glycan array binding signal (z-score),[21],-0.437
same,glycan array binding signal (z-score),[22],-0.527
same,glycan array binding signal (z-score),[23],0.035
same,glycan array binding signal (z-score),[24],0.481
same,glycan array binding signal (z-score),Gal(b1-3)GlcNAc6S,-1.02
same,glycan array binding signal (z-score),[25],0.081
same,glycan array binding signal (z-score),[26],-0.057
same,glycan array binding signal (z-score),[27],-0.352
same,glycan array binding signal (z-score),[28],-0.365
same,glycan array binding signal (z-score),[29],-0.799
same,glycan array binding signal (z-score),[30],0.535
same,glycan array binding signal (z-score),[31],-0.111
same,glycan array binding signal (z-score),[32],0.174
same,glycan array binding signal (z-score),[33],-0.176
same,glycan array binding signal (z-score),[34],-1.48
same,glycan array binding signal (z-score),Gal(b1-4)Gal,-0.413
same,glycan array binding signal (z-score),[35],-0.5
same,glycan array binding signal (z-score),[36],-0.73
same,glycan array binding signal (z-score),Gal(b1-4)Glc,0.542

# 2 entries picked at random from the list so far:
binder,measurement,setting,value
B1,glycan array binding signal (z-score),[26],-0.057
same,glycan array binding signal (z-score),[4],2.24
